# Test results reported in PubChem BioAssay AID2685 (National Center for Advancing Translational Sciences (NCATS), 2010).
# Some of the results follow. The main result of the screen is listed elsewhere. These columns were measured beside it and carry no call. Most of these compounds were active or inconclusive in the main read-out, so they are no random draw. Potencies come from curve fits of mixed quality, noted in brackets.
# Test: qHTS Assay for Lipid Storage Modulators in Drosophila S3 Cells;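 as to cell number change: cells counted by Cell Tracker Red CMTPX staining in the red channel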
# Details: BODIPY lipid droplet fluorescence, 18-24 h; for cell number change: measured here: cell count max response, cells fed with added oleic acid
# In short: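 Drosophila S3 cells loaded with oleic acid (400 uM, as added) and compounds at several concentrations; lipid droplets imaged by 488-nm laser-scanning cytometry, 500–530 nm intensity and object ratio to cell channel. Percent activity normalized to 20 uM Triacsin C.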
# [1] = measured here: cell number channel AC50, cells fed with added oleic acid
# [2] = measured here: lipid fluorescence (Fed channel) AC50, cells fed with added oleic acid
structure (smiles),measurement,setting,value
COc1cccc2c(=O)cc(C)n(CC(=O)Nc3cccc(C)c3)c12,cell number change,,-30.7%
same,AC50,[1],"5.17 µM [falling, partial curve]"
same,AC50,[2],"4.11 µM [falling, partial curve]"
C(=N\n1cnnc1SCc1ccccc1)/c1ccco1,cell number change,,-6.36%
C=CCN1C(=O)/C(=C/c2ccc(N(C)C)cc2)S/C1=N\c1nnc(CC)s1,cell number change,,55.3%
same,AC50,[1],"0.461 µM [rising, full curve]"
CC(C)(C)n1nnnc1C(c1ccc(C(F)(F)F)cc1)N(Cc1ccc(F)cc1)Cc1ccco1 (stereo unspecified),cell number change,,-31.5%
same,AC50,[1],"3.26 µM [falling, full curve]"
same,AC50,[2],"2.91 µM [falling, full curve]"
O=C(Nc1ccnc(-c2ccncc2)n1)c1ccc(Cl)cc1,cell number change,,23.5%
same,AC50,[2],"3.26 µM [rising, partial curve, poor fit]"
O=C(COC(=O)c1ccccc1SCC(=O)N1CCCC1)Nc1ccc(OC(F)F)cc1,cell number change,,-29.2%
same,AC50,[1],"0.0164 µM [falling, full curve, poor fit]"
same,AC50,[2],"6.51 µM [rising, single point]"
CC(CC(=O)NNC(=O)c1cccc(Cl)c1)c1ccccc1 (stereo unspecified),cell number change,,4.7%
c1ccc(NC2=Nc3ccccc3CC2)cc1,cell number change,,16.2%
CCc1ccc(OC(C)C(=O)Nc2ccc(S(=O)(=O)Nc3cc(C)on3)cc2)cc1 (stereo unspecified),AC50,[1],"1.64 µM [rising, partial curve, poor fit]"
same,AC50,[2],"6.51 µM [rising, single point]"
CC(OC(=O)c1n[nH]c2ccccc12)C(=O)Nc1ccccc1[N+](=O)[O-] (stereo unspecified),cell number change,,25.6%
CC(C)(C)c1ccc(C(=O)NN2CCOCC2)cc1,cell number change,,9.19%
same,AC50,[2],"6.51 µM [rising, single point]"
COc1ccccc1Nc1nnc(SCC2CCCCO2)s1 (stereo unspecified),cell number change,,20.3%
same,AC50,[1],"1.84 µM [rising, partial curve, poor fit]"
same,AC50,[2],"0.231 µM [rising, full curve, poor fit]"
COc1cc2c(cc1OC)C(c1cccs1)CC(=O)N2 (stereo unspecified),cell number change,,10.4%
same,AC50,[2],"25.9 µM [falling, single point]"
COCCN(CC(=O)Nc1cccc(C)c1C)C(=O)c1cc(-c2cccs2)nn1-c1ccccc1,cell number change,,2.46%
same,AC50,[2],"3.66 µM [falling, single point]"
CCOC(=O)c1oc2nc(C)c3c(c2c1N)CC(C)(C)OC3,cell number change,,74.8%
same,AC50,[1],"4.61 µM [rising, partial curve]"
same,AC50,[2],"0.259 µM [rising, partial curve]"
O=C(O)C1C2CCC(C2)C1C(=O)N1CCCC1 (stereo unspecified),cell number change,,-10.2%
same,AC50,[2],"20.6 µM [rising, partial curve]"
O=C(NN1CCCCC1)c1ccc(COc2ccc(Cl)cc2)cc1,cell number change,,36.5%
same,AC50,[1],"23.1 µM [rising, single point]"
same,AC50,[2],"20.6 µM [rising, single point]"
CCn1cc(C(=O)Nc2ccccc2C(=O)OC)c(=O)c2ccc(C)nc21,cell number change,,-3.43%
Cc1nnc(Sc2c(N)n(C)c(=O)[nH]c2=O)s1,cell number change,,0.833%
same,AC50,[2],"4.61 µM [falling, full curve]"
Cc1cc(NC(=O)/C=C/c2cccc(F)c2)n(-c2nc3ccccc3[nH]2)n1,cell number change,,-7.7%
same,AC50,[2],"2.31 µM [rising, single point]"
COc1ccc(Cl)cc1N(CC(=O)N1CCN(Cc2ccccc2)CC1)S(C)(=O)=O,cell number change,,1.29%
same,AC50,[2],"0.00461 µM [falling, full curve, poor fit]"
COc1cccc(Cn2nnc(C(=O)NCc3ccc4c(c3)OCO4)c2N)c1,cell number change,,64.2%
Cc1cc(C(=O)OCC(=O)N(CC(C)C)c2c(N)n(Cc3ccccc3)c(=O)[nH]c2=O)c(C)o1,cell number change,,65.5%
same,AC50,[1],"23.1 µM [rising, single point]"
Cc1ccc(-c2cccc(C(=O)NCc3ccccc3)n2)c2ccccc12,cell number change,,-21%
same,AC50,[2],"29.1 µM [falling, single point]"
CCC(C(=O)OCC(=O)Nc1cccc(C(C)=O)c1)c1ccccc1 (stereo unspecified),AC50,[2],"0.461 µM [rising, full curve, poor fit]"
CC(=O)N(C)c1ccc(OCC(O)Cn2c3ccc(Cl)cc3c3cc(Cl)ccc32)cc1 (stereo unspecified),cell number change,,-15.9%
same,AC50,[2],"29.1 µM [falling, single point]"
Fc1ccc(Nc2nnns2)cc1,cell number change,,-39.7%
same,AC50,[1],"29.1 µM [falling, single point]"
same,AC50,[2],"29.1 µM [falling, single point]"
O=C(/C=C\c1ccccc1)Oc1cccc2cccnc12,cell number change,,-30%
same,AC50,[1],"0.731 µM [falling, full curve, poor fit]"
O=C(COC(=O)c1ccc(Cl)c(S(=O)(=O)NCc2ccccc2)c1)NC1CC1,cell number change,,-2.51%
same,AC50,[2],"29.1 µM [rising, single point]"
Cc1n[nH]c(C)c1CCOc1ccc(C(C)C)cc1,cell number change,,-18.6%
same,AC50,[1],"0.058 µM [falling, full curve, poor fit]"
same,AC50,[2],"0.103 µM [falling, full curve, poor fit]"
COc1ccc(-n2nnc3c(SCC(=O)NCc4ccco4)ncnc32)cc1,cell number change,,-32.1%
same,AC50,[1],"23.1 µM [falling, single point]"
CC(C)N(C(=O)CN1C(=O)NC(c2ccccc2)(c2ccccc2)C1=O)C(C)C,cell number change,,11.2%
COc1cc(/C=C/C(=O)OCC(=O)Nc2ccc(NC(C)=O)cc2)cc(S(=O)(=O)N2CCc3ccccc32)c1OC,cell number change,,59.3%
same,AC50,[1],"7.31 µM [rising, partial curve, poor fit]"
same,AC50,[2],"14.6 µM [rising, partial curve]"
COC(=O)CSc1nnc(C)c(=O)[nH]1,cell number change,,-15.4%
COc1ccc(N2C(=O)CC(N3CCCC4CCCCC43)C2=O)cc1 (stereo unspecified),cell number change,,-21.6%
same,AC50,[2],"0.0164 µM [falling, full curve, poor fit]"
NC1=NC(=O)/C(=C\c2ccc(O)c([N+](=O)[O-])c2)S1,cell number change,,15.7%
same,AC50,[2],"1.64 µM [rising, full curve]"
COC(=O)c1ccc(N2CCOCC2)c(NC(=O)c2ccc3c(c2)OCCO3)c1,cell number change,,10.8%
same,AC50,[2],"0.0184 µM [rising, full curve, poor fit]"
CNc1ccc(Br)cc(C(=O)/C=C/c2ccc3c(c2)OCO3)c1=O,cell number change,,-0.377%
same,AC50,[2],"18.4 µM [falling, single point]"

# An excerpt of these results, with tabs:
structure (smiles)	measurement	setting	value
COc1cccc2c(=O)cc(C)n(CC(=O)Nc3cccc(C)c3)c12	AC50	[1]	5.17 µM [falling, partial curve]
C=CCN1C(=O)/C(=C/c2ccc(N(C)C)cc2)S/C1=N\c1nnc(CC)s1	cell number change		55.3%
CC(C)(C)n1nnnc1C(c1ccc(C(F)(F)F)cc1)N(Cc1ccc(F)cc1)Cc1ccco1 (stereo unspecified)	AC50	[1]	3.26 µM [falling, full curve]
O=C(COC(=O)c1ccccc1SCC(=O)N1CCCC1)Nc1ccc(OC(F)F)cc1	cell number change		-29.2%
same	AC50	[2]	6.51 µM [rising, single point]
CC(CC(=O)NNC(=O)c1cccc(Cl)c1)c1ccccc1 (stereo unspecified)	cell number change		4.7%
CC(C)(C)c1ccc(C(=O)NN2CCOCC2)cc1	AC50	[2]	6.51 µM [rising, single point]
CCOC(=O)c1oc2nc(C)c3c(c2c1N)CC(C)(C)OC3	AC50	[1]	4.61 µM [rising, partial curve]
same	AC50	[2]	0.259 µM [rising, partial curve]
Cc1cc(NC(=O)/C=C/c2cccc(F)c2)n(-c2nc3ccccc3[nH]2)n1	cell number change		-7.7%
Fc1ccc(Nc2nnns2)cc1	cell number change		-39.7%
same	AC50	[1]	29.1 µM [falling, single point]
O=C(COC(=O)c1ccc(Cl)c(S(=O)(=O)NCc2ccccc2)c1)NC1CC1	AC50	[2]	29.1 µM [rising, single point]
COc1ccc(-n2nnc3c(SCC(=O)NCc4ccco4)ncnc32)cc1	cell number change		-32.1%
same	AC50	[1]	23.1 µM [falling, single point]
COc1cc(/C=C/C(=O)OCC(=O)Nc2ccc(NC(C)=O)cc2)cc(S(=O)(=O)N2CCc3ccccc32)c1OC	AC50	[1]	7.31 µM [rising, partial curve, poor fit]
same	AC50	[2]	14.6 µM [rising, partial curve]
COc1ccc(N2C(=O)CC(N3CCCC4CCCCC43)C2=O)cc1 (stereo unspecified)	cell number change		-21.6%
same	AC50	[2]	0.0164 µM [falling, full curve, poor fit]
NC1=NC(=O)/C(=C\c2ccc(O)c([N+](=O)[O-])c2)S1	AC50	[2]	1.64 µM [rising, full curve]
